According to patent publication US20230310500A1:
No constants are given. Whether binding was seen depends on the method and setting. Some binding calls cover weakened binding; strength is not graded here.

Molecular target: T1, EpCAM protein (UniProt P16422)
T1 sequence (looked up): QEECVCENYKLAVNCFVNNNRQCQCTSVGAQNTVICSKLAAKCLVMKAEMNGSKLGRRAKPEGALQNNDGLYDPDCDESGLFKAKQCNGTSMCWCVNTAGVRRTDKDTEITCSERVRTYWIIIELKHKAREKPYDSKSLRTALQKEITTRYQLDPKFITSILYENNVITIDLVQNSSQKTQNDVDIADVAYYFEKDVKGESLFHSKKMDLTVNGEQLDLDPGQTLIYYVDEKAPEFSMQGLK
Test: flow cytometry of transduced T cells stained with EpCAM protein, then anti-EpCAM-FITC; untransduced T cells as reference

binding: binds
B1: chimeric antigen receptor targeting EpCAM (EpCAM-CAR) (protein)
chain: QVQLVQSGAEVKKPGASVKVSCKASGYTFTNYWINWVRQAPGQGLEWIGNIYPSYIYTNYNQEFKDKVTLTVDESTSTAYMELSSLRSEDTAVYYCTRSPYGYDEYGLDYWGQGTTVTVSSGGGGSGGGGSGGGGSDIQLTQSPSSLSASVGDRVTMTCKSSQSLLNTRNQKNYLTWYQQKPGKAPKLLIYWASTRESGVPSRFSGSGSGTDFTLTISSLQPEDFATYYCQNDYVYPLTFGQGTKLEIKIEVMYPPPYLDNEKSNGTIIHVKGKHLCPSPLFPGPSKPFWVLVVVGGVLACYSLLVTVAFIIFWVRSKRSRLLHSDYMNMTPRRPGPTRKHYQPYAPPRDFAAYRSRVKFSRSADAPAYQQGQNQLYNELNLGRREEYDVLDKRRGRDPEMGGKPRRKNPQEGLYNELQKDKMAEAYSEIGMKGERRRGKGHDGLYQGLSTATKDTYDALHMQALPPR
